PubChem BioAssay AID1259308 | NCATS – 2017
Assay: 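Knock-downs that increase output of a recombinant reporter protein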 (primary screen). System: human HEK293 embryonic kidney cells stably expressing firefly luciferase (HEK-CMV-Luc2-Hygro). Knock-down reagent: single siRNA against human genes, 0.8 pmol siRNA per well. Time to read-out: 72 h. Detection: 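Reporter luminescence and viable-cell signal on separate replicate plates, given as percent of non-targeting control and median/MAD z-scores, plus per-cell luciferase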. Reading the numbers: total luciferase, z-score and total luciferase, % of control: higher = more reporter protein produced. Active means: 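Active when the median/MAD z-score for overall luciferase is greater than 3; a gene was taken forward for validation with new siRNAs if at least two of its three siRNAs passed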. Calls: active = raised luciferase; inactive = no rise.
Here is one part, drawn at random, of about 59,000 deposited reagents. In the full data, about 1,510 (2.6%) were called active. 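Calls use total luciferase alone and ignore viability, so some active siRNAs may act by altering cell number.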 Reagents against one gene are numbered here. Further read-outs or replicates are left out here.

How did the screen score CDK11A #1?
total luciferase, z-score: 1.15; total luciferase, % of control: 105; outcome: inactive

For CDK11A #2, what was measured?
total luciferase, z-score: -0.25; total luciferase, % of control: 76.9; outcome: inactive

For CDK11A #3, how do the results read?
total luciferase, z-score: 3.38; total luciferase, % of control: 149; outcome: active

What is on record for TMEM61 #1?
total luciferase, z-score: 2.23; total luciferase, % of control: 126; outcome: inactive

How did the screen score TMEM61 #2?
total luciferase, z-score: 1.97; total luciferase, % of control: 121; outcome: inactive

With TMEM61 #3, what was measured?
total luciferase, z-score: -0.118; total luciferase, % of control: 79.5; outcome: inactive

Which result is listed for WNT5B #1?
total luciferase, z-score: 1.02; total luciferase, % of control: 102; outcome: inactive

With WNT5B #2, what was measured?
total luciferase, z-score: -0.242; total luciferase, % of control: 77.1; outcome: inactive

What is on record for WNT5B #3?
total luciferase, z-score: -0.395; total luciferase, % of control: 74; outcome: inactive

For HINT3 #1, what was measured?
total luciferase, z-score: 0.69; total luciferase, % of control: 95.6; outcome: inactive

Which result is listed for HINT3 #2?
total luciferase, z-score: 0.813; total luciferase, % of control: 98.1; outcome: inactive

With HINT3 #3, what does the deposit list?
total luciferase, z-score: -0.119; total luciferase, % of control: 79.5; outcome: inactive

Reformatted: 2 of the entries above
gene | reagent | total luciferase, z-score | total luciferase, % of control | outcome
WNT5B | 1 | 1.02 | 102 | inactive
WNT5B | 2 | -0.242 | 77.1 | inactive
